# The other results are listed elsewhere or left out. The main result of the screen is listed elsewhere. These columns were measured beside it and carry no call. Most of these compounds were active or inconclusive in the main read-out, so they are no random draw. The note in brackets gives the kind of curve behind each potency; many fits are weak.
# Test: IkB Signaling
# Details: ABC-DLBCL IkBa-CBG/CBR dual luciferase ratio (green luciferase fused to IkBa over red control in OCI-Ly3 lymphoma cells), 4 h
# In short: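 Luminescence ratio of IκBα-fused green versus native red beetle luciferase in OCI-Ly3 cells, 4 h post-doxycycline with compound; red signal alone, scaled from basal (0%) to zero light (-100%), flagged nonspecific or cytotoxic effects.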
# [1] = measured here: control luc red channel unless noted
# [2] = measured here: IkB-luc green channel
# [3] = measured here: control luc red channel
structure (smiles),measurement,setting,value
O=C(CCCCn1c(=O)c2ccccc2n(CC(=O)Nc2ccccc2)c1=O)NCc1ccccc1Cl,AC50,[1],"2.51 µM [falling, full curve, poor fit]"
CCN(CC)CCCNC(=O)C1CCN(S(C)(=O)=O)CC1,AC50,[1],"7.94 µM [rising, single point]"
O=C1C(Cl)=C(Nc2ccccc2O)C(=O)N1c1ccccc1,AC50,[1],"0.0158 µM [falling, full curve]"
Cc1oc(-c2ccc(C(=O)Nc3cccc(C(F)(F)F)c3)cc2)nc1CSc1ccccc1,AC50,[1],"10 µM [falling, partial curve]"
COc1ccc(-c2c(C#N)c(SCC(=O)Nc3ccc(Br)cc3)nc(C)c2C(=O)Nc2ccccc2)cc1,AC50,[1],"3.16 µM [falling, full curve, poor fit]"
O=C(CN(c1cc(C(F)(F)F)ccc1Cl)S(=O)(=O)c1ccccc1)NCCc1ccccc1,AC50,[1],"25.1 µM [falling, partial curve]"
COC(=O)c1ccccc1NC(=O)c1cc2c(s1)-c1ccccc1OC2,AC50,[1],"0.398 µM [falling, full curve]"
O=C(CSc1nc(-c2ccccc2)c2ccccc2n1)Nc1ccc(F)cc1,AC50,[1],"1.58 µM [falling, full curve, poor fit]"
COc1cc(C(=O)Nc2nccs2)ccc1OCc1c(C)noc1C,AC50,[1],"31.6 µM [falling, partial curve]"
Cc1cc(C)c(S(=O)(=O)NCCc2cc3ccc(C)cc3[nH]c2=O)c(C)c1,AC50,[1],"12.6 µM [falling, partial curve]"
CC1=C(C(=O)N2CCCCC2)C(c2cccc(Cl)c2)n2c(nc3ccccc32)N1 (centres undefined),AC50,[1],"39.8 µM [falling, single point]"
O=C(CCCc1nc(-c2ccccc2)no1)Nc1cc(C(F)(F)F)cc(C(F)(F)F)c1,AC50,[1],"25.1 µM [falling, partial curve]"
Cc1ccc(-c2cc(-c3ccccc3Cl)[nH]n2)c(O)c1,AC50,[1],"15.8 µM [falling, partial curve]"
O=C(Nc1nnc(S(=O)(=O)N2CCCCC2)s1)c1ccc(F)cc1,AC50,[1],"10 µM [rising, partial curve, poor fit]"
Cc1sc(-n2cccc2)c(C(C)NC(=O)Nc2ccccc2Cl)c1C (centres undefined),AC50,[1],"15.8 µM [falling, partial curve]"
C=CCn1c(Cc2cccs2)nnc1SCC(=O)Nc1ccc(C(=O)OCC)cc1,AC50,[1],"15.8 µM [falling, partial curve]"
Cc1cccc(-c2nc3scc(CCNS(=O)(=O)c4ccc(F)cc4C)n3n2)c1,AC50,[1],"10 µM [falling, partial curve]"
Cc1ccc(NC(=O)c2cc(S(=O)(=O)NCCC3=CCCCC3)ccc2F)cc1C,AC50,[1],"20 µM [falling, partial curve]"
CCc1ccc(NC(=O)c2sc3nc(C)c(C(=O)Nc4ccc(C)cc4C)c(-c4ccco4)c3c2N)cc1,AC50,[1],"0.316 µM [falling, full curve]"
COc1ccc(Nc2sc(C(=O)c3ccccc3)c(N)c2C(=O)Nc2cc(C)ccc2C)c(OC)c1,AC50,[1],"12.6 µM [falling, partial curve]"
Cc1ccc(Cl)cc1N(CC(=O)N1CCCCCC1)S(C)(=O)=O,AC50,[1],"15.8 µM [falling, partial curve]"
Cc1c(NC(=O)c2cc(-c3ccc(Br)cc3)on2)c(=O)n(-c2ccccc2)n1C,AC50,[1],"31.6 µM [falling, single point]"
Cc1ccc(-c2nc3cnccn3c2Nc2ccc3c(c2)OCCO3)o1,AC50,[1],"3.16 µM [rising, partial curve]"
Cc1ccc(S(=O)(=O)c2nnn3c2nc(N2CCC(C)CC2)c2cc(Cl)ccc23)cc1C,AC50,[1],"0.0794 µM [falling, full curve, poor fit]"
COc1ccc(NC(=O)c2ccc3c(c2)n(C)c(=O)n3C)cc1,AC50,[1],"20 µM [rising, partial curve] [measured here: IkB-luc green channel]"
CCOC(=O)Nc1nnc(-c2cccc(OC)c2)s1,AC50,[1],"3.98 µM [rising, partial curve]"
Cc1nn2c(=O)cc(COC(=O)c3ccc(NC(=O)COc4ccc(Cl)cc4)cc3)nc2s1,AC50,[1],"0.00631 µM [falling, full curve, poor fit]"
Cc1ccccc1Nc1c(-c2c[nH]c3ccccc23)nc2ccccn12,AC50,[1],"0.0631 µM [falling, full curve]"
Cc1ccc(-c2csc(=S)n2CC(=O)OCC(=O)NCc2ccco2)cc1,AC50,[1],"15.8 µM [falling, single point]"
CCOc1ccc(CCNc2ncnc3onc(-c4ccc(Cl)cc4)c23)cc1,AC50,[1],"31.6 µM [falling, partial curve]"
O=C(Cn1nnc2sc(-c3ccccc3)cc2c1=O)Nc1cccc(C(F)(F)F)c1,AC50,[1],"20 µM [falling, single point]"
O=c1c2oc3ccccc3c2n(Cc2ccccc2)c(=O)n1Cc1ccco1,AC50,[1],"12.6 µM [falling, single point]"
N=c1oc2c3c4c(cc2cc1C(=O)Nc1ccccc1)CCCN4CCC3,AC50,[1],"0.0794 µM [falling, full curve]"
CCOC(=O)c1cc(-c2ccccc2)n(CCC(=O)Nc2cc(OCC)ccc2OCC)c1C,AC50,[1],"1.26 µM [rising, full curve]"
COc1ccc(NC(=O)c2ccc(NC(=O)CCS(=O)(=O)c3cccs3)cc2)cc1OC,AC50,[1],"10 µM [falling, partial curve]"
COCCn1nnnc1C(c1cc2cccc(C)c2[nH]c1=O)N1CCN(c2ccccc2F)CC1 (centres undefined),AC50,[1],"25.1 µM [falling, partial curve]"
CCCCCn1c(CCCNC(=O)c2cccc(C)c2)nc2ccccc21,AC50,[1],"15.8 µM [falling, partial curve]"
CCn1c(NCc2ccc(OC)c(OC)c2)nc2ccccc21,AC50,[1],"0.0631 µM [falling, full curve]"
CCOc1ccccc1CNC(=O)c1ccc2c(c1)sc1nc(-c3ccccc3)cn12,AC50,[1],"0.251 µM [falling, full curve, poor fit]"
Cc1ccc(Cl)cc1N1CCN(CCCNc2ncnc3onc(-c4ccc(Cl)cc4)c23)CC1,AC50,[1],"39.8 µM [falling, single point]"
C/C(=C\c1ccc(C(=O)O)cc1)c1ccc2c(c1)C(C)(C)CCC2(C)C,AC50,[1],"6.31e-05 µM [rising, full curve, poor fit]"
CC(C)CCNC(=O)NC(=O)COc1ccccc1C#N,AC50,[1],"0.158 µM [falling, full curve]"
COc1ccc(C2=NS(=O)(=O)N(C)C(C(=O)NC(C)c3ccccc3)=C2)cc1 (centres undefined),AC50,[1],"12.6 µM [falling, partial curve]"
CCC(C)(C)n1nnnc1CN(Cc1cccs1)Cc1cc2cc(OC)ccc2[nH]c1=O,AC50,[1],"31.6 µM [falling, single point]"
O=C(c1ccco1)N1CCN(c2nc(C3CC3)nc3sc4c(c23)CCCC4)CC1,AC50,[1],"31.6 µM [falling, partial curve]"
CCN(C(=O)CSc1nc2ccccc2n1CC(=O)N(C)C1CCCCC1)c1ccccc1,AC50,[1],"31.6 µM [falling, single point]"
Cc1ccc(S(=O)(=O)N(C)CCCC(=O)NCc2ccc3c(c2)OCO3)cc1,AC50,[1],"15.8 µM [falling, partial curve]"
CCc1ccc(C(=O)c2cn(CC(=O)Nc3cc(OC)ccc3OC)c3ccc(Cl)cc3c2=O)cc1,AC50,[1],"15.8 µM [falling, partial curve]"
COc1ccc(-c2cc3nc(C)c(CCC(=O)N4CCCCC4)c(C)n3n2)c(OC)c1,AC50,[1],"1.26 µM [falling, full curve]"
CCc1c(C)sc2c1CCN(Cc1ccccc1C#N)C2c1ccccc1 (centres undefined),AC50,[1],"25.1 µM [falling, single point]"
CC1CCN(c2oc(-c3cccs3)nc2S(=O)(=O)c2ccccc2)CC1,AC50,[1],"31.6 µM [falling, partial curve]"
NCCNS(=O)(=O)c1cccc2cnccc12,AC50,[1],"2.51 µM [falling, partial curve]"
COc1ccc(-n2cc(-c3ccc4c(c3)OCO4)n(CC(=O)Nc3cc(Cl)ccc3C)c2=O)cc1,AC50,[2],"12.6 µM [rising, partial curve]"
same,AC50,[3],"12.6 µM [falling, partial curve]"
Cc1cc(OCC(=O)N2CCC(c3nc4ccccc4s3)CC2)ccc1Cl,AC50,[1],"15.8 µM [falling, partial curve]"
O=C(CSc1ncc(-c2ccccc2)[nH]1)Nc1cccc(Br)c1,AC50,[1],"12.6 µM [falling, partial curve]"
O=C(Nc1ccc(F)cc1F)N1CCN(c2ncccn2)CC1,AC50,[1],"10 µM [falling, partial curve]"
CCOCCc1nnc(NC(=O)C(=O)c2cc(C)n(-c3ccc(Cl)cc3)c2C)s1,AC50,[1],"12.6 µM [falling, partial curve]"
Cc1cc2n(n1)CCCN2C(=O)Nc1ccc(F)c(Cl)c1,AC50,[1],"2.51 µM [rising, full curve]"
COc1cccc(NC(=O)c2ccc(CN3CCN(c4ccccc4)CC3)cc2)c1,AC50,[2],"15.8 µM [falling, partial curve]"
same,AC50,[3],"12.6 µM [falling, partial curve]"
Cc1ccc(S(=O)(=O)c2cnc(SCC(=O)Nc3ccc4c(c3)OCCO4)[nH]c2=O)cc1C,AC50,[1],"20 µM [falling, partial curve]"
COc1cc2nc(NC(=O)c3ccc(S(=O)(=O)N4CCc5ccccc54)cc3)sc2cc1OC,AC50,[1],"1.58 µM [falling, full curve]"
CC1CCCCN1C(=O)c1ccc2c(c1)N(Cc1ccc(F)cc1)C(=O)c1ccccc1S2(=O)=O (centres undefined),AC50,[1],"12.6 µM [falling, partial curve]"

# — PubChem BioAssay AID445 (National Center for Advancing Translational Sciences (NCATS), 2006)
